PubChem BioAssay AID1259315 – Drosophila RNAi Screening Center | 2017

Test: 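Fly genes whose loss alters cell survival under toxic zinc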 (primary screen)
System: Drosophila S2R+ cells
Reagents: long dsRNA against Drosophila genes
Time to read-out: 5 days (4 days knock-down, then 1 day with zinc)
Treatment: zinc chloride added to 15 mM final for 1 day
Detection: 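Luminescent measure of total cellular ATP as a survival proxy, read after 4 days of knock-down plus 1 day in 15 mM zinc chloride; z-score averaged across two replicate plates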
Scale: mean ATP z-score: higher = more ATP, more cells surviving zinc
Hit rule: 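Hit when the mean ATP z-score exceeds 1.5 or falls below -1.5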
The whole screen tested 418 reagents; below is an unselected part. Over the whole deposit, 17 (4.1%) were called active. 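z-scores average two replicate plates; all hits raised ATP and none lowered it.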 Entries without a mark were called inactive. Reagent sequences are not shown. Not given: the amount of reagent.

After knock-down of Pex16 [SID104191542] the results were mean ATP z-score -0.187.
With knock-down of Vha13 [SID104196687], the record shows mean ATP z-score 0.592.
Silencing of Ctns [SID104194967] resulted in: mean ATP z-score 2.26 (active).
Ctns [SID104211112] gave mean ATP z-score 1.41.
Silencing of Ctns [SID104217215] resulted in: mean ATP z-score 2.67 (active).
Against Vps16B [SID104195096], the values are mean ATP z-score -0.219.
With knock-down of Vps16B [SID104212268], the screen gave mean ATP z-score -0.269.
After knock-down of Vps16B [SID104212269] the results were mean ATP z-score -0.195.
After knock-down of Ids [SID104188014] the results were mean ATP z-score -0.449.
With knock-down of ScpX [SID104183222], the record shows mean ATP z-score -0.279.
Knock-down of mei-9 [SID104198584] came out at: mean ATP z-score 0.112.
For CG13084 [SID104181980], the values are mean ATP z-score -0.709.
With knock-down of Mpcp2 [SID104191018], the screen gave mean ATP z-score -0.00414.
For Mpcp2 [SID104218578], the values are mean ATP z-score -0.119.
Silencing of Vps35 [SID104184311] gave: mean ATP z-score -0.0348.
For Vps35 [SID104207334] the deposit lists mean ATP z-score -0.395.
Depletion of Vps35 [SID104214021] gave: mean ATP z-score -0.424.
After knock-down of wat [SID104194646], the record shows mean ATP z-score 0.362.
Depletion of wat [SID104212311] resulted in: mean ATP z-score -0.153.
Depletion of Cln7 [SID104190797] came out at: mean ATP z-score -0.193.
Cln7 [SID104217761] scored mean ATP z-score -0.463.
Against Npc2h [SID104194089], the entry reads mean ATP z-score -0.0308.
Hacl [SID104185853] scored mean ATP z-score -0.225.
Silencing of Hacl [SID104214683] resulted in: mean ATP z-score -0.186.
Knock-down of Sap-r [SID104201540] came out at: mean ATP z-score -0.324.
For Sap-r [SID104205790], the entry reads mean ATP z-score -0.383.
For CG15533 [SID104194861], the entry reads mean ATP z-score 0.00315.
Depletion of CG15533 [SID104208575] came out at: mean ATP z-score -0.347.
With knock-down of CG33128 [SID104180086], the record shows mean ATP z-score -0.0851.
After knock-down of CG33128 [SID104207242] the results were mean ATP z-score -0.316.
With knock-down of Vps33B [SID104195514], the record shows mean ATP z-score -0.218.
After knock-down of Vps33B [SID104212933], the record shows mean ATP z-score -0.167.
Against Agxt [SID104198510], the entry reads mean ATP z-score -0.202.
Silencing of Agxt [SID104204659] came out at: mean ATP z-score -0.291.
Against CG15117 [SID104186331], the entry reads mean ATP z-score -0.444.
With knock-down of CG15117 [SID104204017], the screen gave mean ATP z-score -0.319.
For CG15117 [SID104211728], the values are mean ATP z-score -0.032.
CatB [SID104182986] showed mean ATP z-score -0.226.
Against CatB [SID104203244], the values are mean ATP z-score -0.199.
For CatB [SID104215645], the values are mean ATP z-score -0.271.
Against Npc2g [SID104194088], the values are mean ATP z-score 0.738.
After knock-down of CG3961 [SID104190182], the record shows mean ATP z-score 1.17.
Silencing of CG3961 [SID104190183] resulted in: mean ATP z-score -0.247.
Against CG3961 [SID104212885], the values are mean ATP z-score -0.197.
Knock-down of VhaM9.7-b [SID104191633] gave: mean ATP z-score -0.224.
For VhaM9.7-b [SID104217773] the deposit lists mean ATP z-score 0.459.
After knock-down of Dhrs4 [SID104189565], the screen gave mean ATP z-score -0.12.

Copied from the list.
For “mean ATP z-score”, CatB [SID104215645] shows -0.271
Vps16B [SID104212268], mean ATP z-score: -0.269
Value for VhaM9.7-b [SID104217773] under “mean ATP z-score”: 0.459
Under “mean ATP z-score”, Cln7 [SID104190797] shows -0.193
Entry for CatB [SID104182986] in “mean ATP z-score”: -0.226
Under “mean ATP z-score”, Sap-r [SID104201540] is entered as -0.324
